{"sequences": {"note": "By UniProt entry, the sequences of proteins in these tests, tags left out.", "UniProt Q0JBA9, entry or part of it": "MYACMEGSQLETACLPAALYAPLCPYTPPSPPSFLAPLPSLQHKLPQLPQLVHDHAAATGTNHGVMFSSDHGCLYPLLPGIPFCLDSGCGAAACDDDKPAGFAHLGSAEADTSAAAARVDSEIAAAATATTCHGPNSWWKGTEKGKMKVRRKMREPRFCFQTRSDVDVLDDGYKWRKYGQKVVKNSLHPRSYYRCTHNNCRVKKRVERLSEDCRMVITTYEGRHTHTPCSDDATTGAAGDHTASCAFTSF"}, "source": "paper PMC7819943", "about": "“Rice protein-binding microarrays: a tool to detect cis-acting elements near promoter regions in rice”", "note": "Some of the results follow.", "data": [{"molecular_target": "OsWRKY34 (Oryza sativa, UniProt Q0JBA9 1-250)", "assay": "protein-binding microarray (RPBM); PBS, 2% BSA, 51.3 ng/ul salmon testes DNA, 50 uM zinc acetate, 200 nM TF, 25 C, 1 h; high values mean tight binding", "conditions": "protein: recombinant; tags: N-terminal polyhistidine and DsRed monomer fusion (pET32a); label: CyDye5-dUTP incorporated in the synthesized complementary strand; 3' TTTTT single-stranded linker to array surface; dsDNA, one strand shown", "method_in_brief": "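Binding signal here means per-feature fluorescence intensity in arbitrary units. The values were read on an Axon 4000B scanner after a custom Agilent array, double-stranded by primer extension with Cy5-dUTP, was incubated with 200 nM protein at 25 °C for 1 h in PBS with 2% BSA, salmon testes DNA and 50 µM zinc acetate, then washed. The proteins were transcription factors with an N-terminal polyhistidine tag and DsRed, expressed in E. coli BL21-CodonPlus and purified on Ni–NTA.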", "values": [{"sequence": "TCGGAGCTATATTAGCCGTTGACCCCGGCAATGTCAACTTCGGAGTCACCTAGTGCAG", "binding signal": "9680 fluorescence intensity (a.u.)"}, {"sequence": "ATTCAATTCGTTCGCTCCACTAATCTTAAAAGCCATTATTCGGAGTCACCTAGTGCAG", "binding signal": "8270 fluorescence intensity (a.u.)"}, {"sequence": "TGCCGTGTTTGGTGTTGGATCCTCCGTCTTCCCCACAAGGCGGAGTCACCTAGTGCAG", "binding signal": "8290 fluorescence intensity (a.u.)"}, {"sequence": "AATGTGTATCCGTATATTTGATATGACACGCCAAAACTTTCGGAGTCACCTAGTGCAG", "binding signal": "8200 fluorescence intensity (a.u.)"}, {"sequence": "GTATGTAACACATTTGATCGTCGTCTTTGAGTGGTTTGACCGGAGTCACCTAGTGCAG", "binding signal": "8520 fluorescence intensity (a.u.)"}, {"sequence": "CTCTCTCCTCCTCCGTGGGCTTCTCCAGATCCGCCCTCTTCGGAGTCACCTAGTGCAG", "binding signal": "9350 fluorescence intensity (a.u.)"}, {"sequence": "GTGGCTTTCTGATTATATGCATGTTCCATATGGGTTTGCACGGAGTCACCTAGTGCAG", "binding signal": "9370 fluorescence intensity (a.u.)"}, {"sequence": "TTCTTTCGGGGTCTATTTTGTAAAAATACACTGTCACTACCGGAGTCACCTAGTGCAG", "binding signal": "8780 fluorescence intensity (a.u.)"}, {"sequence": "CTCTCCACCTCGCGCCCACGCGACACAACACACAGACACACGGAGTCACCTAGTGCAG", "binding signal": "8420 fluorescence intensity (a.u.)"}, {"sequence": "CCTAAATATGTGGTCATATGCGTATTTTTTTTTATTTCTTCGGAGTCACCTAGTGCAG", "binding signal": "9500 fluorescence intensity (a.u.)"}, {"sequence": "TTATTTCCGCAAATCGTTCGCTATCCGGTATATTTTTGCACGGAGTCACCTAGTGCAG", "binding signal": "17300 fluorescence intensity (a.u.)"}, {"sequence": "CCGCCGCCCGCACGCCGCCGCTCGGCCGCCCGCACCACCGCGGAGTCACCTAGTGCAG", "binding signal": "8530 fluorescence intensity (a.u.)"}, {"sequence": "GCGGTGGTGCGCCTCTTGTCTCTCTGTGCTGCTCTCACTACGGAGTCACCTAGTGCAG", "binding signal": "10800 fluorescence intensity (a.u.)"}, {"sequence": "ATTCAATGCTTGCCGCCGCTCTTCGAACCTCATCAAAACTCGGAGTCACCTAGTGCAG", "binding signal": "9020 fluorescence intensity (a.u.)"}, {"sequence": "GTATTTTAAGCATATTTTTTCGTTTTTTATATTTGTAAAACGGAGTCACCTAGTGCAG", "binding signal": "11000 fluorescence intensity (a.u.)"}, {"sequence": "TTTTCCACGCGCACGCTTCCCAAACTGTTAAATGGTATGTCGGAGTCACCTAGTGCAG", "binding signal": "10400 fluorescence intensity (a.u.)"}, {"sequence": "GTCTCCGTCTCCGTCCTTGGGTTGATATCCAGAATCAGTCCGGAGTCACCTAGTGCAG", "binding signal": "8800 fluorescence intensity (a.u.)"}, {"sequence": "GTACTTGTGTTATTGCTTTTAAATTAGAGTACTCCCTAGTCGGAGTCACCTAGTGCAG", "binding signal": "9130 fluorescence intensity (a.u.)"}, {"sequence": "CTTCTTCTTCTTTCTCGCCTCCTCTCTTTTCTCTTCTCTTCGGAGTCACCTAGTGCAG", "binding signal": "8350 fluorescence intensity (a.u.)"}, {"sequence": "GCTTGATCATCGGCCTCAACACCCTGCATATGTGTATTCTCGGAGTCACCTAGTGCAG", "binding signal": "10400 fluorescence intensity (a.u.)"}, {"sequence": "ATTGCCTGTCTTTCTTCATCATCTTAAGTTTTTGAGTTAACGGAGTCACCTAGTGCAG", "binding signal": "8970 fluorescence intensity (a.u.)"}, {"sequence": "TATTTGCTTGCATCTTGGGGATCTTGATTCTCTGGGACATCGGAGTCACCTAGTGCAG", "binding signal": "9720 fluorescence intensity (a.u.)"}, {"sequence": "AAATGCCCATCTGTTTGTACATTATCTTACCAAGGATTTTCGGAGTCACCTAGTGCAG", "binding signal": "8270 fluorescence intensity (a.u.)"}]}]}
